Assay results: patent publication US20220289816A1, “IMMUNOTHERAPY WITH B*07 RESTRICTED PEPTIDES AND COMBINATION OF PEPTIDES AGAINST CANCERS AND RELATED METHODS” (Immatics Biotechnologies GmbH, priority 2018, published 2022)
For some assays here: Expression grades refer to the transcript from which the peptide derives; gene names, where given, were looked up from the sequence.

Key:
[1] = system: source genes of the peptides (mRNA); assay: Expression profiling of genes encoding the peptides (RNAseq of tumor and normal tissue RNA); design: species or system human
[2] = system: tumor tissue samples and normal tissue samples (HLA-B*07 positive); assay: Identification and quantitation of tumor associated peptides presented on the cell surface (HLA immunoprecipitation, label-free LC-MS); design: species or system human; conditions: cancer entities on which the peptide was found presented (abbreviations in table head)
[3] = tumor entities in which the source gene of the peptide is highly over-expressed compared to a panel of normal tissues (RNAseq)
[4] = tumor entities in which the source gene of the peptide is over-expressed compared to a panel of normal tissues (RNAseq)
[5] = tumor types in which the peptide's source gene is highly over-expressed compared to a panel of normal tissues, RNAseq
[6] = tumor types in which the peptide's source gene is over-expressed compared to a panel of normal tissues, RNAseq

| Substance | Gene Expression in tumor samples: Highly over-expressed (++) [1, 3] | Peptide Presentation on cancer entities ([2]; Table 8a) | Gene Expression in tumor samples: over-expressed (+) [1, 4] | Gene Expression in tumor samples: Highly over-expressed (++) [1, 5] | Gene Expression in tumor samples: over-expressed (+) [1, 6] | Peptide Presentation on cancer entities ([2]; Table 8b) |
| --- | --- | --- | --- | --- | --- | --- |
| 230: peptide found in MITF (gene looked up) (DVIDDIISL; listed as Homo sapiens) [compound 230] | MEL | GBM, HCC, HNSCC, NHL, NSCLCsquam | – | – | – | – |
| 344: peptide found in AR (gene looked up) (VPYPSPTCV; listed as Homo sapiens) [compound 344] | – | BRCA, HCC, UEC | HCC, PRCA | – | – | – |
| 47: peptide found in DNTT (gene looked up) (RPRQTGALM; listed as Homo sapiens) [compound 47] | AML | AML | – | – | – | – |
| 32: peptide found in PGR (gene looked up) (APMAPGRSPL; listed as Homo sapiens) [compound 32] | UEC | UEC | BRCA | – | – | – |
| 220: peptide found in GRIN2D (gene looked up) (RPAPGPAPFV; listed as Homo sapiens) [compound 220] | CRC, GC | BRCA | GBC, HNSCC, MEL, NSCLCadeno, OSCAR, PACA, UBC, UEC | – | – | – |
| 478: peptide found in GRM8 (gene looked up) (APKFISPASQL; listed as Homo sapiens) [compound 478] | – | – | – | CRC | RCC, SCLC | SCLC |
| 376: peptide found in CXCR3 (gene looked up) (FPQVGRTAL; listed as Homo sapiens) [compound 376] | – | AML, BRCA, CCC, CLL, CRC, GBC, GC, HCC, HNSCC, MEL, NHL, NSCLCadeno, NSCLCother, NSCLCsquam, OC, OSCAR, PACA, PRCA, RCC, SCLC, UBC, UEC | CLL | – | – | – |
| 146: peptide found in PTPRZ1 (gene looked up) (SPTRGSEF; listed as Homo sapiens) [compound 146] | GBM | GBM | – | – | – | – |
| 142: peptide found in QRFPR (gene looked up) (HPFKMKWQY; listed as Homo sapiens) [compound 142] | RCC | RCC | OSCAR | – | – | – |
| 470: peptide found in GRM8 (gene looked up) (RPNGEVKSEL; listed as Homo sapiens) [compound 470] | – | – | – | CRC | RCC, SCLC | SCLC |
| 215: peptide found in EGFR (gene looked up) (IPVAIKEL; listed as Homo sapiens) [compound 215] | GBM | NSCLCother | – | – | – | – |
| 192: peptide found in ROS1 (gene looked up) (IPFADVKSF; listed as Homo sapiens) [compound 192] | NSCLCadeno, NSCLCother | NSCLCadeno, NSCLCsquam, SCLC | NSCLCsquam | – | – | – |
| 139: peptide found in NMUR2 (gene looked up) (LVILQHQAM; listed as Homo sapiens) [compound 139] | – | RCC | PACA, UEC | – | – | – |
| 367: peptide found in OXTR (gene looked up) (APQVHIFSL; listed as Homo sapiens) [compound 367] | CCC | BRCA, CRC, GBM, RCC, UEC | GBM, OC | – | – | – |
| 336: peptide found in NUP155 (gene looked up) (YPLQGPGLLSV; listed as Homo sapiens) [compound 336] | – | NHL | NSCLCother, SCLC | – | – | – |
| 40: peptide found in MMP1 (gene looked up) (FPRTVKHIDAAL; listed as Homo sapiens) [compound 40] | HNSCC, NSCLCsquam, OSCAR | CRC | CRC, GC, NSCLCadeno, PACA, UBC | – | – | – |
| 497: peptide found in ROS1 (gene looked up) (YVVKPLHPF; listed as Homo sapiens) [compound 497] | – | – | – | NSCLCadeno | NSCLCother, NSCLCsquam | CRC |
| 306: peptide found in CYP2W1 (gene looked up) (RPFPLALL; listed as Homo sapiens) [compound 306] | – | CRC | CRC | – | – | – |
| 216: peptide found in APOB (gene looked up) (LPWEQNEQV; listed as Homo sapiens) [compound 216] | HCC | HCC | – | – | – | – |
| 318: peptide found in SIGLEC6 (gene looked up) (TPISNTGVL; listed as Homo sapiens) [compound 318] | – | AML, GBC, NHL, NSCLCadeno, NSCLCother, RCC | CLL, NHL | – | – | – |
| 34: peptide found in PGR (gene looked up) (APMAPGRSP; listed as Homo sapiens) [compound 34] | UEC | BRCA, UEC | BRCA | – | – | – |
| 36: peptide found in FLT3 (gene looked up) (RPFSREMDL; listed as Homo sapiens) [compound 36] | AML | AML, OC | – | – | – | – |
| 327: peptide found in SIGLEC6 (gene looked up) (GPRTTQSSVL; listed as Homo sapiens) [compound 327] | – | NSCLCadeno | CLL, NHL | – | – | – |
| 261: peptide found in EGFR (gene looked up) (SPSTSRTPL; listed as Homo sapiens) [compound 261] | GBM | GBC, GBM, HCC, HNSCC, NSCLCadeno | – | – | – | – |
| 48: peptide found in BMPR1B (gene looked up) (RPRYSIGL; listed as Homo sapiens) [compound 48] | BRCA | BRCA | PRCA, UEC | – | – | – |
| 345: peptide found in AR (gene looked up) (SAAPPGASL; listed as Homo sapiens) [compound 345] | – | HCC | HCC, PRCA | – | – | – |
| 197: peptide found in EGFR (gene looked up) (RPSGTAGAALLA; listed as Homo sapiens) [compound 197] | GBM | HCC | – | – | – | – |
